Measurements published in PubChem BioAssay AID540303 (National Center for Advancing Translational Sciences (NCATS), 2011).
Screen size: about 330,000 compounds; about 1,000 (0.3%) were called active. The inconclusive results got no clear call from the source; some entries with a clear call stand among them for comparison. Calls follow the shape of the dose curve; as a rule, active = well fitted inhibition curve with a large enough effect; inconclusive = small, poorly fitted or top-dose-only effect; inactive = no such curve, though single readings can be large or run the other way; tested in mouse RAW 264.7 cells. Potencies of inconclusive entries are doubtful fits and often do not repeat.

Experiment: qHTS for Inhibitors of Cell Surface uPA Generation; also: nearly all actives have a fitted effect of over 55% in size
Settings: cell surface uPA generation assay; series mostly up to 38.3 µM
Procedure, shortened: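 Murine RAW 264.7 cells are treated for 24 h with compound up to 38.3 uM final. Cell ATP, measured by ATP-Lite, remains high if blocking the uPA cascade prevents LF from reaching the cytoplasm.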
Potency is read from the fitted curve at half-maximal effect.

Row | Structure (SMILES) | Potency
1 | O=C(NCc1ccccc1)c1noc2c1CCCCC2 | inconclusive: 12.6 µM [inhibitor, single point]
2 | COC(=O)C1=C(c2ccc(F)cc2OCc2ccccc2)C[C@@H]2CC[C@H]1N2C(=O)NCc1ccccc1Br | inconclusive: 7.08 µM [inhibitor, single point]
3 | COc1ccc(N=C(C)c2c(O)[nH]c(=O)[nH]c2=O)cc1 | inconclusive: 20 µM [inhibitor, partial curve, poor fit]
4 | CC[C@]12c3[nH]c4cc(-c5ccco5)ccc4c3CCN1C(=O)[C@@H](CC(=O)NC/C=C(\C)CCC=C(C)C)C[C@@H]2C(=O)N1CCN(C(=O)c2ccco2)CC1 | inconclusive: 10 µM [inhibitor, partial curve, poor fit]
5 | CCC(C)Sc1cc(-c2nc3cc(C)ccn3c2NC2CCCCC2)ccc1OC (stereo not given) | inconclusive: 12.6 µM [inhibitor, single point]
6 | COc1cccc(-c2sc3ccccc3c2-c2ccc(OCCN(C)C)cc2)c1 | inconclusive: 12.6 µM [inhibitor, single point]
7 | O=C(Cc1cccs1)NCCSc1c(-c2ccc(Cl)cc2)[nH]c2ccccc12 | inconclusive: 12.6 µM [inhibitor, single point]
8 | COc1cc2c(cc1OC)[C@H]1C(=O)c3ccc4c(c3O[C@H]1CO2)C[C@@H](C(C)(C)O)O4 | inconclusive: 11.2 µM [inhibitor, single point]
9 | O=C(/C=C(O)/C=C/c1ccc(O)cc1)/C=C/c1ccc(O)cc1 | inconclusive: 10 µM [inhibitor, partial curve]
10 | Cc1cc(C(=O)CS(=O)c2ccc(F)cc2)cc(C)c1OC(=O)N(C)C (stereo not given) | inactive
11 | CC[C@H]1CC2CN3CCc4c([nH]c5cc(OC)ccc45)[C@](C(=O)OC)(C2)[C@H]13 | inactive
12 | Cc1cc(-c2ccccc2)n(-c2cc(N/N=C/c3ccccc3O)ncn2)n1 | active: 10 µM
13 | O=[N+]([O-])c1ccc([N+](=O)[O-])c(Nc2ccc(N3CCOCC3)cc2)c1 | inconclusive: 5.01 µM [inhibitor, single point]
14 | O=C(C1=C[C@@H](c2ccc(C(F)(F)F)cc2)C[C@@H](OCc2ccc(CO)cc2)O1)N1CCN(Cc2ccc3c(c2)OCO3)CC1 | inconclusive: 10 µM [inhibitor, single point]
15 | O=C(Oc1ccnc2cc(Cl)ccc12)N1CCOCC1 | inconclusive: 5.01 µM [inhibitor, partial curve, poor fit]
16 | O=C(C1=C[C@H](c2csc3ccccc23)C[C@H](OCc2ccc(CO)cc2)O1)N1CCN(Cc2ccccc2)CC1 | inconclusive: 11.2 µM [inhibitor, single point]
17 | CC(=O)NC(Cc1ccc(N(CCCl)CCCl)cc1)C(=O)NC(CC(C)C)C(=O)O (stereo not given) | inactive
18 | CCC(=NCc1cc(OC)cc(OC)c1)c1c(O)n(C2CCCCC2)c(=O)[nH]c1=O | inconclusive: 8.91 µM [inhibitor, single point]
19 | COC(=O)C1=C(c2ccc3ccccc3c2)C[C@@H]2CC[C@H]1N2C(=O)N1CCOCC1 | inconclusive: 28.2 µM [inhibitor, single point]
20 | O=C(/C=C/c1cccc([N+](=O)[O-])c1)Nc1ccccn1 | inconclusive: 1.26 µM [inhibitor, partial curve, poor fit]
21 | Cc1ccc(-c2nc(CS(=O)(=O)CC(=O)N3CCCCCC3)c(C)o2)cc1 | inconclusive: 3.55 µM [inhibitor, partial curve, poor fit]
22 | CNC(=O)Oc1ccc(N(C)C)cc1C(C)C | inactive
23 | COC(=O)C1=C(c2ccc(-c3ccccc3)c(F)c2)C[C@@H]2CC[C@H]1N2C(=O)NCc1cc(C)oc1C(F)(F)F | inconclusive: 28.2 µM [inhibitor, single point]
24 | CC[N+](CC)(CCCCS(=O)(=O)[O-])CCNP1(=O)C=C(c2ccccc2)OC(c2ccccc2)=C1 | inconclusive: 12.6 µM [inhibitor, single point]
25 | CC[C@H]1CN2CCC1C[C@@H]2[C@@H](O)c1ccnc2ccc(OC)cc12 (stereo not given in full) | inconclusive: 3.16 µM [inhibitor, partial curve, poor fit]
26 | CCc1ccc(/C=C2\SC(=S)N(CCC(=O)N3CCN(C)CC3)C2=O)cc1 | inconclusive: 11.2 µM [inhibitor, single point]
27 | N#CC(CCN1CCOCC1)(c1ccccc1)c1ccccc1 | inconclusive: 7.08 µM [inhibitor, single point]
28 | C=C(C)[C@@]12OC3(c4ccccc4)O[C@@H]1C1[C@@H]4O[C@]4(CO)[C@@H](O)[C@]4(O)C(=O)C(C)=C[C@H]4[C@@]1(O3)[C@H](C)[C@H]2OC(=O)/C=C/C=C/c1ccccc1 (stereo not given in full) | inconclusive: 12.6 µM [inhibitor, single point]

Row | Structure (SMILES) | Potency
29 | COc1ccc(-c2ccccc2[C@H]2[C@@H]3C=CC[C@@H](C)[C@@H]3C(=O)N2Cc2ccccc2)cc1 | inconclusive: 28.2 µM [inhibitor, single point]
30 | O=C1C(Cl)=CC(=Nc2ccc(O)cc2)C=C1Cl | inconclusive: 8.91 µM [inhibitor, partial curve, poor fit]
31 | Cc1cc(C)n(-c2ccc(NN=C(C#N)C#N)cc2)n1 | inconclusive: 2.82 µM [inhibitor, partial curve]
32 | CC1(C)CCCN1CCC(C(N)=O)(c1ccccc1)c1ccccc1 | inactive
33 | CC[C@H](C)[C@@H]1NC(=O)[C@H]([C@@H](C)CC)NC(=O)[C@@H](CC(C)C)NC(=O)[C@H](Cc2ccccc2)NC(=O)[C@H](Cc2ccccc2)NC(=O)[C@@H]2CCCN2C(=O)[C@@H]2CCCN2C(=O)[C@H](C(C)C)NC(=O)[C@H](CC(C)C)NC1=O | inconclusive: 12.6 µM [inhibitor, single point]
34 | Cc1nn(Cc2ccc(Cl)c(Cl)c2)c(C)c1NC(=O)c1cc(CC(C)C)on1 | inconclusive: 12.6 µM [inhibitor, single point]
35 | O=C(Nc1cccc(Cl)c1)OC1CN2CCC1CC2 (stereo not given) | inconclusive: 7.94 µM [inhibitor, single point]
36 | COC(=O)C1=C(c2ccccc2OCc2ccccc2)C[C@@H]2CC[C@H]1N2C(=O)NCc1cccc(C(F)(F)F)c1 | inconclusive: 10 µM [inhibitor, single point]
37 | O=C(CSCC(=O)NN=Cc1ccccc1O)NN=Cc1ccccc1O | inconclusive: 11.2 µM [inhibitor, single point]
38 | Nc1ccc(C2(c3ccc(N)cc3)c3ccccc3-c3ccccc32)cc1 | inactive
39 | COc1ccc2nc(NC(=O)c3ccc4ncsc4c3)sc2c1 | inconclusive: 3.16 µM [inhibitor, partial curve]
40 | C=C1C(=O)O[C@@H]2C[C@@H](C)[C@@H]3C=CC(=O)[C@@]3(C)[C@@H](OC(C)=O)[C@H]12 | inconclusive: 0.355 µM [inhibitor, full curve, poor fit]
41 | O=C(CNc1ccccc1)N/N=C/c1c[nH]c2ccccc12 | inconclusive: 10 µM [inhibitor, partial curve, poor fit]
42 | Cc1cc(C)c(CN2CCN(C(=O)Cn3cnc4c(NCc5ccccc5)ncnc43)CC2)c(C)c1 | inconclusive: 10 µM [inhibitor, partial curve]
43 | CC(C)[C@H]1C(=O)O[C@H](C(C)C)C(=O)N(C)[C@@H](C(C)C)C(=O)O[C@H](C(C)C)C(=O)N(C)[C@@H](C(C)C)C(=O)O[C@H](C(C)C)C(=O)N1C | inconclusive: 3.16 µM [inhibitor, full curve, poor fit]
44 | O=c1oc(-c2ccc(O)c(O)c2)cc2cccc(O)c12 | inconclusive: 2.82 µM [inhibitor, full curve]
45 | Cc1ccc(NC(=O)CN2C(=O)CN=C(c3ccccc3)c3cc(Cl)ccc32)cc1 | inconclusive: 28.2 µM [inhibitor, single point]
46 | COc1ccc(N/N=C/c2c(O)n(-c3cccc(C)c3)c(=O)[nH]c2=O)cc1 | inconclusive: 12.6 µM [inhibitor, partial curve, poor fit]
47 | Cn1cc(S(=O)(=O)N2CCc3ccccc32)cc1C(=O)NC(C)(C)C | inconclusive: 3.55 µM [inhibitor, partial curve]
48 | CN(C)P(=O)(C(Cl)=C(N1CCCCC1)N1CCCCC1)N(C)C | inconclusive: 3.98 µM [inhibitor, partial curve]
49 | O=C1C=C2C=C[C@H]3C[C@]2(O1)[C@@H]1CCCCN13 | inconclusive: 10 µM [inhibitor, single point]
50 | Nc1c(-c2ccccc2)cnn1-c1ccccc1 | inconclusive: 3.55 µM [inhibitor, partial curve]
51 | COc1ccc(NC(=O)c2cccs2)cc1C(=O)N1CCN(c2ccccc2)CC1 | inconclusive: 12.6 µM [inhibitor, partial curve, poor fit]
52 | Cc1cc(-c2ccccc2)cc(C)[n+]1Cc1ccccc1 | inconclusive: 10 µM [inhibitor, partial curve]
53 | COC(=O)C1=C(c2ccc(OCc3ccccc3)cc2)C[C@@H]2CC[C@H]1N2C(=O)NCc1ccc(OC)c(OC)c1 | inconclusive: 12.6 µM [inhibitor, single point]
54 | COCC1CCCCN1C(=O)c1ccc(OC)c(OC2CCN(C(C)C)CC2)c1 (stereo not given) | inconclusive: 12.6 µM [inhibitor, single point]
55 | CC(=O)c1ccc2c(c1)N(CCCN(C)C)c1ccccc1S2 | inconclusive: 12.6 µM [inhibitor, single point]

No new results follow: entries from further up.
Row | Structure (SMILES) | Potency
35 | O=C(Nc1cccc(Cl)c1)OC1CN2CCC1CC2 (stereo not given) | inconclusive: 7.94 µM [inhibitor, single point]
36 | COC(=O)C1=C(c2ccccc2OCc2ccccc2)C[C@@H]2CC[C@H]1N2C(=O)NCc1cccc(C(F)(F)F)c1 | inconclusive: 10 µM [inhibitor, single point]
37 | O=C(CSCC(=O)NN=Cc1ccccc1O)NN=Cc1ccccc1O | inconclusive: 11.2 µM [inhibitor, single point]
